The target of experiment [1] is T1, Fps1-3xFLAG (S. cerevisiae), P23900.
T1 chain: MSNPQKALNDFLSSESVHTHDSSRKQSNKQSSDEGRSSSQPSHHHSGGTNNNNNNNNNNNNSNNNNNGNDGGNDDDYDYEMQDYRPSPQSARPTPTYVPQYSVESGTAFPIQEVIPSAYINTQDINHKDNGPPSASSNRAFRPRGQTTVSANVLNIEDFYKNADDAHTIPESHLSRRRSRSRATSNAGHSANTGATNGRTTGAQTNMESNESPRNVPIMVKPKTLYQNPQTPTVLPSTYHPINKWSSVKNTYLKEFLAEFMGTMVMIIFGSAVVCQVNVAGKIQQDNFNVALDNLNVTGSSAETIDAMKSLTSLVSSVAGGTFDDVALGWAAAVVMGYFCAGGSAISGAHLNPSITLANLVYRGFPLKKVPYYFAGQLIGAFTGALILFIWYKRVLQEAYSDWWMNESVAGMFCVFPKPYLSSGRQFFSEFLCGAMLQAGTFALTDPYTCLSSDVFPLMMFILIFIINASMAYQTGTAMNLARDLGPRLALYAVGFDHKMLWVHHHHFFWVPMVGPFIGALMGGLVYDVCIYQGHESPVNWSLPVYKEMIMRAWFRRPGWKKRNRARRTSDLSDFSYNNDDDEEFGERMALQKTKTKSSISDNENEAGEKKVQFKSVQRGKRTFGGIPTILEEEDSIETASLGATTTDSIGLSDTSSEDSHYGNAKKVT
As to the kind of experiment: co-IP; Fps1-3xFLAG immunoprecipitated from clarified yeast lysate (10 mg protein) with anti-FLAG agarose, 2 hr at 4°C, in TNE+Triton+NP-40 (50 mM Tris-Cl pH 7.5, 150 mM NaCl, 0.5% Triton-X100, 1.0% NP-40); Rgc2 detected by anti-HA immunoblot. The note with it: remark: other sources report otherwise. On the technique in general: A western blot detects proteins with antibodies after separation by electrophoresis.

The target in experiment [2] is T2, Fps1(S181A S185A S570A)-3xFLAG (S. cerevisiae) (UniProt P23900).
T2 sequence: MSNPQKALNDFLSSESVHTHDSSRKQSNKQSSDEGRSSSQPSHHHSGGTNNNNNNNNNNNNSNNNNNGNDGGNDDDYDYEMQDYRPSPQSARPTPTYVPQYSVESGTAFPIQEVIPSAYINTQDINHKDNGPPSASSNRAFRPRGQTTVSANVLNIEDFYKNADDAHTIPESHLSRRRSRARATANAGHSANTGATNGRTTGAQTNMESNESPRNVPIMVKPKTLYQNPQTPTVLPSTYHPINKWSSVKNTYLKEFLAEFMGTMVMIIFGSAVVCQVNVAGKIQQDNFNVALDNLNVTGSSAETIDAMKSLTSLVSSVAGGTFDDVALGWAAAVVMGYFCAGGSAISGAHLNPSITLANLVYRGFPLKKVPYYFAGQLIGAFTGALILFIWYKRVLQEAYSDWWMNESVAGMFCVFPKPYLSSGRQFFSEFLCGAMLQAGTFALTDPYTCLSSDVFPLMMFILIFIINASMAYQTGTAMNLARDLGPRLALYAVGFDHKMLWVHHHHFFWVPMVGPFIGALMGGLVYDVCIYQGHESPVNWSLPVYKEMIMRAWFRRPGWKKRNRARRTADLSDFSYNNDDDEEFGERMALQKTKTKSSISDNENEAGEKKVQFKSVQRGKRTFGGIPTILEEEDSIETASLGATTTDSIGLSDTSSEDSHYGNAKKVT
The experiment is described as above.

Results are given in words; binding and its absence hold for the method and conditions named. In cells and extracts the contact can be indirect. Some binding calls cover weakened binding; strength is not graded here. Sequences can lack the tags named with a protein.

B1: Rgc2-3xHA, P48361 1-1146 (protein)
chain: MSDYFSSRPSQTLTPMGNKPSGGGGGDDASSIHSKSSQYLMDILPDSMTLNESVSSIVANNQAKEFILPETDERSPYFINVPIPKAQPTSTTETKKPLAGDEAIDGQFVKEYPTDILVDRFYKWKKILKGLVIYLREVAYAQEQFARINYQLKGSVKFPFLTDIDETTNTITDPFTTAPRGPKKAQPAQKKVGLTDSEQFQMQMQQEQQENAVQAPTDESKMSLAPHEYKPVQTTESDNTSAASGFVKFGSGSIQDIQVILKKYHLSLANQQFKISKEITSTVIPKLEELRKDLRYKITEIKDLHGDFKTNIGAHIQLTSQLLKKYIAAVKFMNAHGIGNDRASPTNKKPHKLDPKHDPYLLKLQLDLQLKRQVAEETYLQEAFINLQSSGLQLEKIIYTKIQHALLRYSALIDSEARLMIKNMCQELQHGIISKPPAFEWDNFVTQHPSCLLNWKSNDPIPPPRKVSDVIYPHMKSPLAKCIKAGYFLKKSELLPTYHQGYFVLTSNYIHEFQSSDFYNLSSSTPNSTKSSAYSSSVSIADTYANANNAKANNHHRQASDVHNSSTTTGGTAGANGIRGIRKKSYLAPIMSIPLNDCTLKDASSTKFVLVGKPTLNENADVRKSSSSTYLSGSSQASLPKYGHETAKIFSKAPFHKFLKGSKPKNKNTKSSELDQFYAAAQKESNNYVTWTFKIVSPEPSEEELKHFKRWVQDLKNLTSFNDTKDRIKFIEDRVMKSHRFKAGHMSRNSVNIGSHTPCLTDSTFTLQDGTTTSVNLKGRAEKPQYIHIQNNSLADFDGNGFRSKVNTPAIDDYGNLITVERRPAQSPHQYSDYMATSGNTTPSYSSGSRPQSMYNGYNPAVSITSNGMMLQQSTANNNTNPTTNLRHQRNISQTSSLPGFSYTSLSLPVNSPGSSNSESSSGGYFAIPLHGNNNNNNYTQRNSEGSSPCYNDDQIRQQQQPLQMQPLSRTSSSSVNVTAMRSTSAGNSITANAPVVPKVMVNNQNVKTVAADQSATAPSSPTMNSSVTTINRESPYQTLKKTNSTGNVPCLTAEKTHAHPAFYKRGNNSAQNLTTSSSTASRVHPIRKHKKNVSFSSLNSLMFSKKGANHGGNLMTNQFMSGGIQEDDGDSTNNDTIKLNQSIYS
For the molecule B1, the binding entry in experiment [1] was “binds”.

B2: Rgc2-3xHA (protein, UniProt P48361 1-1146)
chain: MSDYFSSRPSQTLTPMGNKPSGGGGGDDASSIHSKSSQYLMDILPDSMTLNESVSSIVANNQAKEFILPETDERSPYFINVPIPKAQPTSTTETKKPLAGDEAIDGQFVKEYPTDILVDRFYKWKKILKGLVIYLREVAYAQEQFARINYQLKGSVKFPFLTDIDETTNTITDPFTTAPRGPKKAQPAQKKVGLTDSEQFQMQMQQEQQENAVQAPTDESKMSLAPHEYKPVQTTESDNTSAASGFVKFGSGSIQDIQVILKKYHLSLANQQFKISKEITSTVIPKLEELRKDLRYKITEIKDLHGDFKTNIGAHIQLTSQLLKKYIAAVKFMNAHGIGNDRASPTNKKPHKLDPKHDPYLLKLQLDLQLKRQVAEETYLQEAFINLQSSGLQLEKIIYTKIQHALLRYSALIDSEARLMIKNMCQELQHGIISKPPAFEWDNFVTQHPSCLLNWKSNDPIPPPRKVSDVIYPHMKSPLAKCIKAGYFLKKSELLPTYHQGYFVLTSNYIHEFQSSDFYNLSSSTPNSTKSSAYSSSVSIADTYANANNAKANNHHRQASDVHNSSTTTGGTAGANGIRGIRKKSYLAPIMSIPLNDCTLKDASSTKFVLVGKPTLNENADVRKSSSSTYLSGSSQASLPKYGHETAKIFSKAPFHKFLKGSKPKNKNTKSSELDQFYAAAQKESNNYVTWTFKIVSPEPSEEELKHFKRWVQDLKNLTSFNDTKDRIKFIEDRVMKSHRFKAGHMSRNSVNIGSHTPCLTDSTFTLQDGTTTSVNLKGRAEKPQYIHIQNNSLADFDGNGFRSKVNTPAIDDYGNLITVERRPAQSPHQYSDYMATSGNTTPSYSSGSRPQSMYNGYNPAVSITSNGMMLQQSTANNNTNPTTNLRHQRNISQTSSLPGFSYTSLSLPVNSPGSSNSESSSGGYFAIPLHGNNNNNNYTQRNSEGSSPCYNDDQIRQQQQPLQMQPLSRTSSSSVNVTAMRSTSAGNSITANAPVVPKVMVNNQNVKTVAADQSATAPSSPTMNSSVTTINRESPYQTLKKTNSTGNVPCLTAEKTHAHPAFYKRGNNSAQNLTTSSSTASRVHPIRKHKKNVSFSSLNSLMFSKKGANHGGNLMTNQFMSGGIQEDDGDSTNNDTIKLNQSIYS
In the case of B2, the binding result in experiment [2] is reported as “binds”.

These data come from paper PMC4552222.
